Reference: PubChem BioAssay AID504523 (Broad Institute, 2011)
The campaign covered roughly 340,000 compounds. About 490 (0.14%) were called active. Inconclusive results, whose numbers are uncertain, are shown with a selection of clear calls. Rule as the data show it: active = inhibition above about 12%; inconclusive = no clear call, values can overlap the other calls; inactive = below about 7.3%.

Protein sequences, listed by entry. Tags and fused reporters are not part of them.
UniProt Q14145, whole entry, looked up: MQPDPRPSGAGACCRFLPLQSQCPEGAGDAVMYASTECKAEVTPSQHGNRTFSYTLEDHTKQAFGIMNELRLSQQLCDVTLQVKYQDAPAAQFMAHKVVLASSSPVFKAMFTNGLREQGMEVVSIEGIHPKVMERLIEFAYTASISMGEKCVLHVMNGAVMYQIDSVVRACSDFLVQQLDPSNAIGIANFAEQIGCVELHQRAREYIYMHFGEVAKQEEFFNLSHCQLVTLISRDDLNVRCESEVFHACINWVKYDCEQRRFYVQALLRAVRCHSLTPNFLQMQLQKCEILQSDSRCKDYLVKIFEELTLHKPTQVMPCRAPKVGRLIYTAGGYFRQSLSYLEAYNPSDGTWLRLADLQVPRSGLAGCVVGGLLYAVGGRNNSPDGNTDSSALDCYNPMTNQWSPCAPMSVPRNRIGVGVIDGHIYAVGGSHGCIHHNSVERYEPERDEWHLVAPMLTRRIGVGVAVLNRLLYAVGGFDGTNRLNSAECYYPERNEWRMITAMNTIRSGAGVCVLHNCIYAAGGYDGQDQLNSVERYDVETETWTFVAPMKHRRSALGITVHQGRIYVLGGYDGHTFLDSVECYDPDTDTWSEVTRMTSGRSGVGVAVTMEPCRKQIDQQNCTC

biological target: Kelch-like ECH-associated protein 1 (Homo sapiens) (UniProt Q14145); assay: disruptors of Keap1 binding to Nrf2 – biochemical, fluorescence polarization, single point, primary screen (AID 504523); conditions: Keap1 Kelch-Nrf2 peptide fluorescence polarization, 1536-well; at 9.4 µM; hits give high values;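 also: human Keap1 Kelch domain with fluorescein labeled Nrf2 9mer peptide probe; 0% = neutral control wells and 100% = peptide positive control; higher means more block of Keap1 binding to Nrf2 peptide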

Row | Compound | inhibition
1 | COc1ccc(OCCSc2nc3ccccc3n2CC(=O)O)cc1 | inconclusive: 11.9%
2 | CNc1ccc(N=Nc2cccc3ncccc23)cc1 | inconclusive: 6.07%
3 | O=C(Nc1nc2ccc(S(=O)(=O)N3CCCCC3)cc2s1)c1cccnc1 | inconclusive: 3.36%
4 | CCNc1sc(C(=O)c2cccs2)c(N)c1C#N | inconclusive: 8.62%
5 | O=C(NNc1ccccc1Br)C(O)(c1cccc(C(F)(F)F)c1)c1cccc(C(F)(F)F)c1 | inconclusive: 8.4%
6 | O=C(/C=C/c1ccc([N+](=O)[O-])cc1)c1cccs1 | inactive: -4.2%
7 | CCOC(=O)c1sc2nc3c(SCC(=O)O)cc(C(=O)c4cc(F)ccc4O)cn3c(=O)c2c1C | inactive: -0.0727%
8 | Cc1ccc(C2=NNC(=O)C(c3c[nH]c4ccccc34)C2)cc1 (configuration not stated) | inactive: 1.35%
9 | CS/C(=N\S(=O)(=O)c1ccccc1)c1ccccc1 | inconclusive: 9.35%
10 | CCCCCCCNC(=O)CC(NS(=O)(=O)c1ccc(NC(C)=O)cc1)C(C)C (configuration not stated) | inconclusive: 8.08%
11 | O=C(CCNS(=O)(=O)c1ccccc1)NCCSc1ccc(Br)cc1 | inconclusive: 6.26%
12 | CCCCN1C(=O)/C(=C2/Sc3ccccc3N2C)S/C1=N\c1ncn[nH]1 | active: 41.2%
13 | Cc1ccc(S(=O)(=O)N2CCc3cc4c(cc3C2C)OCCCO4)cc1 (configuration not stated) | inactive: 0.198%
14 | C=CCn1c(=N)c(C#N)cc2c(=O)n3ccccc3nc21 | inconclusive: 6.08%
15 | O=C(Nc1ccc2c3c(cccc13)CC2)c1ccco1 | inconclusive: 10.8%
16 | CCN1C(=O)[C@H]2[C@@H](c3ccc(C)cc3)N3C(=O)N(c4cccc(Br)c4)C(=O)[C@@]3(C)[C@H]2C1=O | inconclusive: 10.7%
17 | CN(C)CCN(C)Cc1c2ccccc2c(CN(C)CCN(C)C)c2ccccc12 | active: 19.5%
18 | COc1ccc(-n2c(C)ccc2-c2ccccc2)cn1 | inconclusive: 11.6%
19 | CCN(CC)C(=O)Cn1cc(C(=O)C(=O)N2CCc3ccccc32)c2ccccc21 | inconclusive: 11.8%

Arranged by count of non-hydrogen atoms (smallest number first): three of the compounds above
Row | Compound | inhibition
18 | COc1ccc(-n2c(C)ccc2-c2ccccc2)cn1 | inconclusive: 11.6%
12 | CCCCN1C(=O)/C(=C2/Sc3ccccc3N2C)S/C1=N\c1ncn[nH]1 | active: 41.2%
19 | CCN(CC)C(=O)Cn1cc(C(=O)C(=O)N2CCc3ccccc32)c2ccccc21 | inconclusive: 11.8%

As entered above:
For inhibition, COc1ccc(OCCSc2nc3ccccc3n2CC(=O)O)cc1 has the entry inconclusive: 11.9%
For inhibition, CCOC(=O)c1sc2nc3c(SCC(=O)O)cc(C(=O)c4cc(F)ccc4O)cn3c(=O)c2c1C has the entry inactive: -0.0727%

(further entries)

Row | Compound | inhibition
20 | NS(=O)(=O)c1ccc(CCNC(=O)CNC(=O)c2ccccc2Br)cc1 | inconclusive: 10.1%
21 | CCCCN(C)C(=O)c1cn(C)c2ccc(S(=O)(=O)N(C)C)cc2c1=O | inconclusive: 5.42%
22 | CC1=NN(c2ccc(S(=O)(=O)O)cc2C)C(=O)C1 | inconclusive: 10.8%
23 | O=C(CSc1ccc(-c2ccncc2)nn1)N1CCCCC1 | inactive: 0.78%
24 | CCOC(=O)/C(C#N)=N\Nc1cc(Cl)ccc1OC | inconclusive: 8.48%
25 | Cc1ccc2cc(/C=C(\C#N)C(N)=O)c(N3CCCCC3)nc2c1 | inconclusive: -19.6%
26 | Cc1ccc2nc(Cl)c(C#N)cc2c1 | inconclusive: 5.77%
27 | Cc1ccccc1Nc1nc(NCc2ccco2)c2ccccc2n1 | inconclusive: 8.82%
28 | COc1ccc(CCn2c(=N)c(C(=O)NCC3CCCO3)cc3c(=O)n4cccc(C)c4nc32)cc1OC (configuration not stated) | inconclusive: 9.43%
29 | CCn1c(SC(C)C(=O)O)nc2sc3c(c2c1=O)CCC3 (configuration not stated) | inconclusive: 8.29%
30 | COC(=O)CNC(=O)C1CCC(CNS(=O)(=O)c2cccc3nsnc23)CC1 (configuration not stated) | inconclusive: 10.8%
31 | Cc1ccc(NC(=O)c2cc(N3CCOCC3)nc3ccccc23)cc1 | inconclusive: 6.75%
32 | O=c1c(C(c2ccccc2)c2c(O)nc3n(c2=O)CCS3)c(O)nc2n1CCS2 | inconclusive: 10%
33 | Cn1nnnc1Sc1ncnc2scc(-c3ccccc3C(F)(F)F)c12 | inconclusive: 11.6%
34 | COc1ccc(/C=N/NC(=O)CNC(=O)c2ccncc2)cc1OC | inactive: -8.55%
35 | O=C(CCCN1C(=O)CCC1=O)Nc1ccc(Cl)c(C(F)(F)F)c1 | inconclusive: 9.83%
36 | CCOC(=O)C1CCN(c2nc3ccccc3nc2C(C#N)C(=O)OC(C)COC)CC1 (configuration not stated) | inconclusive: 5.85%
37 | O=C(NCCCN1CCOCC1)c1ccc(CS(=O)(=O)c2c(Cl)cccc2Cl)o1 | inconclusive: 10.8%
38 | O=C(OCCN1C(=O)c2cccc3c(N4CCOCC4)ccc(c23)C1=O)c1ccc(Cl)cc1Cl | active: 42.9%

Row | Compound | inhibition
39 | Cc1cc(C)c(NC(=O)COC(=O)C2CCCO2)c(C)c1 (configuration not stated) | inconclusive: 8.37%
40 | CCN(CC)C(=O)CSc1nc2ccccc2c(=O)n1-c1ccccc1OC | inconclusive: 8.33%
41 | O=C(Nc1ccc(F)cc1)C1CC2CCC1C2 (configuration not stated) | inconclusive: 9.05%
42 | CC1(C)CC(=O)C(CS(=O)(=O)c2ccccc2)=C(O)C1 | inconclusive: 8.11%
43 | O=C(/C=C/c1ccco1)OCc1nnc(-c2ccccc2)o1 | inconclusive: 9.78%
44 | Nc1cc(C(=O)O)c(N)c2c1C(=O)c1ccccc1C2=O | inconclusive: 7.9%
45 | N#Cc1ccsc1NC(=O)CN1C(=O)NC2(CCCC2)C1=O | inactive: 1.11%
46 | Cc1ccc(C(=O)N/N=C\C=C\c2ccccc2[N+](=O)[O-])cn1 | inconclusive: 8.63%
47 | Cc1ccc(S(=O)(=O)Nc2nnc(CC(C)(C)C)s2)cc1 | inactive: 1.02%
48 | COc1ccc(C(=O)NCc2nnc(SC)n2C2CCCCC2)cc1 | inconclusive: 8.73%
49 | CCCC(=O)n1nc(-c2ccc(C)cc2)nc1NCc1ccco1 | inactive: -4.93%
50 | O=C1C(Cl)=C(NS(=O)(=O)c2ccc([N+](=O)[O-])cc2)C(=O)c2ccccc21 | active: 19.6%
51 | COCCNc1ccc([N+](=O)[O-])cc1C(=O)NC1CCCc2ccccc21 (configuration not stated) | inactive: -1.22%
52 | CC(NC(=O)/C(C#N)=C1\N=C(NC(=O)c2cccs2)c2ccccc21)c1ccccc1 (configuration not stated) | inconclusive: 3.04%
53 | CCS(=O)(=O)c1ccc(O)c(NC(=O)c2cc(-c3ccccn3)nc3ccccc23)c1 | inconclusive: 6.94%
54 | C=CCOc1ccccc1/C=N/n1nnnc1N | inconclusive: 11.2%
55 | Cc1ccc(CSc2nnc(-c3ccncc3)n2C)cc1 | inactive: 4.05%
56 | C=CCn1c(=O)c(C(=O)Nc2ccccc2C)c(O)c2ccccc21 | inconclusive: 9.62%
57 | COc1cccc(NC(=O)C(c2ccccc2)N2CCN(CC(=O)N3CCOCC3)CC2)c1 (configuration not stated) | inactive: -0.0898%
